Assay results: article PMC4872778
Results are given in words; binding and its absence hold for the method and conditions named. In cells and extracts the contact can be indirect.

By UniProt entry, the sequences of proteins in these tests, tags left out. Where a name states a change or a piece, a line headed by the entry shows the natural chain unless it says otherwise.
UniProt P53355: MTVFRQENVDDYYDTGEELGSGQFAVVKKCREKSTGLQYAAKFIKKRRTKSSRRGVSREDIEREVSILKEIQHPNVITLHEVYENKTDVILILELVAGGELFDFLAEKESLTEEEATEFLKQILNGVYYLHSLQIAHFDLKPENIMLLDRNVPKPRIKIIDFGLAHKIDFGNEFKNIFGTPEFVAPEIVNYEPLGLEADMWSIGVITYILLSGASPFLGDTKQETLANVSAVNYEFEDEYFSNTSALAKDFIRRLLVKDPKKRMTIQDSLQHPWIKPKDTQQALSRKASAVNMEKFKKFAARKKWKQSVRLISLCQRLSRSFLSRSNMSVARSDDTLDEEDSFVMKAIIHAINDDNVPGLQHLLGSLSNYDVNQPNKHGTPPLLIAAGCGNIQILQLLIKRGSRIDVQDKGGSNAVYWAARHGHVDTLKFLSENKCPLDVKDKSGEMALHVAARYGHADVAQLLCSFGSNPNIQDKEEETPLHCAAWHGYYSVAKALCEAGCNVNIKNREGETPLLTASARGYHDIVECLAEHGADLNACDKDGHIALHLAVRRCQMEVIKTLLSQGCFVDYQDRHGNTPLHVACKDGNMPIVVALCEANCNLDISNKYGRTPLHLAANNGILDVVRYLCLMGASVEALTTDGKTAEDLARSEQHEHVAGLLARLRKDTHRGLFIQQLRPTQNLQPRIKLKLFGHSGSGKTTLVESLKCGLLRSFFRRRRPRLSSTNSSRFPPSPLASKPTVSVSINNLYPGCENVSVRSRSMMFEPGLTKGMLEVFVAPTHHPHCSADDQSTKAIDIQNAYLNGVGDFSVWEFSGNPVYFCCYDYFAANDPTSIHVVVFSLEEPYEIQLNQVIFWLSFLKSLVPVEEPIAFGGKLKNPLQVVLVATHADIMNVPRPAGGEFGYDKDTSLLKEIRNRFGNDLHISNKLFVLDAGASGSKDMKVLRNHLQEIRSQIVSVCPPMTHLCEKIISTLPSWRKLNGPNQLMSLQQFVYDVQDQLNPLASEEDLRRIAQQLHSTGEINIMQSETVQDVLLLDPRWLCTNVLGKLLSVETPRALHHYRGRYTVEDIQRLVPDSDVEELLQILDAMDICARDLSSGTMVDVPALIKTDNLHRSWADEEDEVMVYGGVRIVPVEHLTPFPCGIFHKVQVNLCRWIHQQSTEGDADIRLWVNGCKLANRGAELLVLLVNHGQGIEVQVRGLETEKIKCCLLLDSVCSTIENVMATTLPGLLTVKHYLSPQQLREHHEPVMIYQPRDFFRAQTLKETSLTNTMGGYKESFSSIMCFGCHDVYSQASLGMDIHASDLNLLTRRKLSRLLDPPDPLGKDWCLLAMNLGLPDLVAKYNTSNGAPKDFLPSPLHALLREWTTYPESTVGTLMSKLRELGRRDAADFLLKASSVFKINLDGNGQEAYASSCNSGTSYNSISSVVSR

Experiments:
[1] = molecular target: DAPK-ΔDD-VN (from pBiFC-DAPK (ΔDD)-VN) (UniProt P53355); assay: split reporter; BiFC with Venus fragments (VN on DAPK forms, VC on DANGER) in transiently transfected live NCI-H460 or A427 cells; fluorescence microscopy
[2] = molecular target: DAPK-ΔDD as used in the IP assay of Figure 4D (UniProt P53355); assay: co-IP; IP assay ('binding assay') of DAPK forms (WT, DD-only, ΔDD) with DANGER (Figure 4D); antibodies and constructs not told

B1: DANGER-VC (from pBiFC-DANGER-VC) (protein, UniProt Q8IWB1 16-547)
chain: IINHPLLFPRENATVPENEEEIIRKMQAHQEKLQLEQLRLEEEVARLAAEKEALEQVAEEGRQQNETRVAWDLWSTLCMILFLMIEVWRQDHQEGPSPECLGGEEDELPGLGGAPLQGLTLPNKATLGHFYERCIRGATADAARTREFLEGFVDDLLEALRSLCNRDTDMEVEDFIGVDSMYENWQVDRPLLCHLFVPFTPPEPYRFHPELWCSGRSVPLDRQGYGQIKVVRADGDTLSCICGKTKLGEDMLCLLHGRNSMAPPCGDMENLLCATDSLYLDTMQVMKWFQTALTRAWKGIAHKYEFDLAFGQLDSPGSLKIKFRSGKFMPFNLIPVIQCDDSDLYFVSHLPREPSEGTPASSTDWLLSFAVYERHFLRTTLKALPEGACHLSCLQIASFLLSKQSRLTGPSGLSSYHLKTALLHLLLLRQAADWKAGQLDARLHELLCFLEKSLLQKKLHHFFIGNRKVPEAMGLPEAVLRAEPLNLFRPFVLQRSLYRKTLDSFYEMLKNAPALISEYSLHVPSDQPTPKS
For B1, the binding [1] was “no binding”.

B2: DANGER as used in the IP assays of Figures 3A, 3B and 4D (protein, UniProt Q8IWB1 16-547)
chain: IINHPLLFPRENATVPENEEEIIRKMQAHQEKLQLEQLRLEEEVARLAAEKEALEQVAEEGRQQNETRVAWDLWSTLCMILFLMIEVWRQDHQEGPSPECLGGEEDELPGLGGAPLQGLTLPNKATLGHFYERCIRGATADAARTREFLEGFVDDLLEALRSLCNRDTDMEVEDFIGVDSMYENWQVDRPLLCHLFVPFTPPEPYRFHPELWCSGRSVPLDRQGYGQIKVVRADGDTLSCICGKTKLGEDMLCLLHGRNSMAPPCGDMENLLCATDSLYLDTMQVMKWFQTALTRAWKGIAHKYEFDLAFGQLDSPGSLKIKFRSGKFMPFNLIPVIQCDDSDLYFVSHLPREPSEGTPASSTDWLLSFAVYERHFLRTTLKALPEGACHLSCLQIASFLLSKQSRLTGPSGLSSYHLKTALLHLLLLRQAADWKAGQLDARLHELLCFLEKSLLQKKLHHFFIGNRKVPEAMGLPEAVLRAEPLNLFRPFVLQRSLYRKTLDSFYEMLKNAPALISEYSLHVPSDQPTPKS
For B2, the binding [2] was “no binding”.
